Data on one substance can be found in article PMC11705651.

This test concerns the target T1, nuclear factor erythroid 2-related factor 2 (NRF2) (human (endogenous in SUM159PT)) (UniProt Q16236).
T1 sequence: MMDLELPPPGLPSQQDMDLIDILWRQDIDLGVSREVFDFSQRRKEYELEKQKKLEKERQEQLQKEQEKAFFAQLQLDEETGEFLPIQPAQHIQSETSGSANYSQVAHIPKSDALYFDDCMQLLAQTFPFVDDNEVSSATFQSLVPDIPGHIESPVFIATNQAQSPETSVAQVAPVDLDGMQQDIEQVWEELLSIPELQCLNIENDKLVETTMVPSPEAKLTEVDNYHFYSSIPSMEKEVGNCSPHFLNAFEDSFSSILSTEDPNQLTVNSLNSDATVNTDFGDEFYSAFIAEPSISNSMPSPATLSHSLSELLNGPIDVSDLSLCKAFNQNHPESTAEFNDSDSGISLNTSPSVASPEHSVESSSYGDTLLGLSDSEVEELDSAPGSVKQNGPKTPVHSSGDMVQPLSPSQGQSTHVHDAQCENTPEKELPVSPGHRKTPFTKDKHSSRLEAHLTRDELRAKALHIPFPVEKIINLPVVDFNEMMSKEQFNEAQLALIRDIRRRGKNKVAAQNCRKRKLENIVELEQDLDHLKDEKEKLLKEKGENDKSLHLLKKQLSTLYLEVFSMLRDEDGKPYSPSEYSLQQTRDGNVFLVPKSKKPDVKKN
In words: co-IP; endogenous proteins of SUM159PT cell lysates (wild type or EGFR(Y1068F) cells; with and without CAP treatment or p38 siRNA); target antibody overnight at 4°C, protein A and protein G agarose, washed with lysis buffer, western blot.

These are yes or no findings as the source states them, for the method shown. Binding seen in cells or lysates may run through a third protein. Binding calls can cover weak binding; strength is not graded here.

“glutathione peroxidase 4 (GPX4) (human (endogenous in SUM159PT)) (enzyme)”: the binding result is on record as “binds”.
